Where a name gives a salt, the structure may show the parent alone. The list shows a part of the results. The data scatter; read single values as rough.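 Yeast growth was measured as optical density at 600 nm. Two-hybrid strains grew without histidine, so growth depended on Pex3–Pex19 binding. A compound was trypanosome-selective if it reduced growth of the trypanosome-pair strain by over 65% and of the human-pair strain by under 65%.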
Test system: T. brucei Pex3-Pex19 interaction (yeast two-hybrid)
Experiment: growth inhibition of yeast two-hybrid strain reporting TbPex3-TbPex19 interaction, relative to DMSO; higher = stronger inhibition of T. brucei Pex3-Pex19 interaction / growth
Conditions: 100 µM; 24 h

Row | SMILES | growth inhibition [%]
1 | CNC(=O)[C@H]1O[C@@H](n2cnc3c(NCc4cccc(I)c4)nc(Cl)nc32)[C@H](O)[C@@H]1O [Chloro-IB-MECA] | 23.9
2 | O=c1[nH]c(=S)[nH]c(-c2ccccc2)c1Cc1c(O)ccc2ccccc12 [Cambinol] | 42.3
3 | O=C(O)C1CCNCC1 [Isonipecotic acid] | 66.8
4 | Nc1nc(N)c2nc(-c3ccccc3)c(N)nc2n1 [Triamterene] | 36.9
5 | N[C@@H](Cc1c[nH]c2ccc(O)cc12)C(=O)O [5-Hydroxy-L-tryptophan] | 56.9
6 | CC(C)NC[C@H](O)COc1ccc(CC(N)=O)cc1 [S(-)-Atenolol] | 54.5
7 | O=C(O)CCc1ccc(NCc2cccc(Oc3ccccc3)c2)cc1 | 78.2
8 | Oc1ncnc2[nH]ncc12 [Allopurinol] | 70.6
9 | O=C(CCCN1CCC(O)(c2ccc(Cl)cc2)CC1)c1ccc(F)cc1 [Haloperidol] | 54.6
10 | NC(N)=NC(N)=Nc1ccccc1 [1-Phenylbiguanide] | 68.4
11 | CC/C(=C(\c1ccccc1)c1ccc(OCCN(C)C)cc1)c1ccccc1 [Tamoxifen citrate] | 71.7
12 | CCCCCCCCCCCCCCCCCCN(CCCCCCCCCCCCCCCCCC)CCCN(CCO)CCO [Avridine] | 63
13 | N[C@H](CO)C(=O)O [D-Serine] | 66.8
14 | CCC1(c2ccccc2)C(=O)NCNC1=O [Primidone] | 53.5
15 | C=CCNc1ncnc2ccc(Br)cc12 | 67.6
16 | NC1=NCC2c3ccccc3Cc3ccccc3N12 (centres undefined) [Epinastine hydrochloride] | 59.1
17 | O=C(CCCN1CCC(O)(c2cccc(C(F)(F)F)c2)CC1)c1ccc(F)cc1 [Trifluperidol hydrochloride] | 62.4
18 | NC(Cc1ccc(Cl)cc1)C(=O)O (racemic) [(±)-p-Chlorophenylalanine] | 63.9
19 | Cc1c(-c2ccc(-c3ccccc3F)cc2)nc2ccc(F)cc2c1C(=O)O [Brequinar sodium salt hydrate] | 52.8
20 | N=C(N)N1CCc2ccccc2C1 [Debrisoquin sulfate] | 41.5

Compounds above containing an NH in an aromatic ring (3):
Row | SMILES | growth inhibition [%]
2 | O=c1[nH]c(=S)[nH]c(-c2ccccc2)c1Cc1c(O)ccc2ccccc12 [Cambinol] | 42.3
5 | N[C@@H](Cc1c[nH]c2ccc(O)cc12)C(=O)O [5-Hydroxy-L-tryptophan] | 56.9
8 | Oc1ncnc2[nH]ncc12 [Allopurinol] | 70.6

Following part:

Row | SMILES | growth inhibition [%]
21 | Cc1ccc(N(CC2=NCCN2)c2cccc(O)c2)cc1 [Phentolamine mesylate] | 61.8
22 | Cn1c(=O)c2[nH]cnc2n(C)c1=O [Aminophylline ethylenediamine] | 60.7
23 | CN1C(C(=O)Nc2ccccn2)=C(O)c2ccccc2S1(=O)=O [Piroxicam] | 51
24 | CN(C)C/C=C(/c1ccc(Br)cc1)c1cccnc1 [Zimelidine dihydrochloride] | 35.9
25 | O=C(Nc1cccnc1)N1CCC(Cc2cccc(Oc3ccc(C(F)(F)F)cn3)c2)CC1 [PF 3845 hydrate] | 53.6
26 | C=C[C@H]1CN2CC[C@H]1C[C@@H]2[C@@H](O)c1ccnc2ccc(OC)cc12 [Quinidine sulfate] | 73.2
27 | Nc1nc(Cl)nc2c1ncn2[C@@H]1O[C@H](COP(=O)(O)OP(=O)(O)OP(=O)(O)O)[C@H](O)C1O (some centres undefined) [2-Chloroadenosine triphosphate tetrasodium] | 60
28 | CC1=C(/C=C/C(C)=C/C=C/C(C)=C/C(=O)O)C(C)(C)CCC1 [Retinoic acid] | 52.2
29 | CCCCCCCC/C=C\CCCCCCCC(=O)NCCO [N-Oleoylethanolamine] | 57.4
30 | N[C@H](C(=O)O)[C@H](O)c1ccc(O)c(O)c1 | 66.9
31 | CC1=C(C(=O)O)N2C(=O)[C@@H](NC(=O)[C@H](N)c3ccccc3)[C@H]2SC1 [Cephalexin hydrate] | 58.5
32 | CSc1ccc2c(c1)N(CCC1CCCCN1C)c1ccccc1S2 (centres undefined) [Thioridazine hydrochloride] | 52.8
33 | CCCC(CCC)C(=O)O [Valproic acid sodium] | 48.4
34 | OC[C@H]1O[C@@H](n2cnc3c(N[C@H]4CCC[C@@H]4O)ncnc32)[C@H](O)[C@@H]1O | 61.4
35 | Nc1ccc(N2C(=O)c3ccccc3C2=O)c(Cl)c1 [N-(4-Amino-2-chlorophenyl)phthalimide] | 45.5
36 | Cc1ccc(C(=O)Nc2ccc(S(=O)(=O)O)c3cc(S(=O)(=O)O)cc(S(=O)(=O)O)c23)cc1NC(=O)c1cccc(NC(=O)Nc2cccc(C(=O)Nc3cc(C(=O)Nc4ccc(S(=O)(=O)O)c5cc(S(=O)(=O)O)cc(S(=O)(=O)O)c45)ccc3C)c2)c1 [Suramin sodium salt] | 63
37 | C[N+](C)(C)CCCCCC[N+](C)(C)C [Hexamethonium bromide] | 50.3
38 | NC(CO)C(=O)NNCc1ccc(O)c(O)c1O (centres undefined) [Benserazide hydrochloride] | 28.1
39 | CN1CCN(c2nc3cc(C(F)(F)F)ccc3n3cccc23)CC1 | 26.8

Source: the supplement of paper PMC8326762, “A Small Molecule Inhibitor of Pex3–Pex19 Interaction Disrupts Glycosome Biogenesis and Causes Lethality in Trypanosoma brucei” (Frontiers in Cell and Developmental Biology, 2021)
